Article PMC11303140
No constants are given. Whether binding was seen depends on the method and setting. In cells and extracts the contact can be indirect. Some binding calls cover weakened binding; strength is not graded here.

Chains of the proteins cited; added tags and fusions are not shown.
UniProt Q15910: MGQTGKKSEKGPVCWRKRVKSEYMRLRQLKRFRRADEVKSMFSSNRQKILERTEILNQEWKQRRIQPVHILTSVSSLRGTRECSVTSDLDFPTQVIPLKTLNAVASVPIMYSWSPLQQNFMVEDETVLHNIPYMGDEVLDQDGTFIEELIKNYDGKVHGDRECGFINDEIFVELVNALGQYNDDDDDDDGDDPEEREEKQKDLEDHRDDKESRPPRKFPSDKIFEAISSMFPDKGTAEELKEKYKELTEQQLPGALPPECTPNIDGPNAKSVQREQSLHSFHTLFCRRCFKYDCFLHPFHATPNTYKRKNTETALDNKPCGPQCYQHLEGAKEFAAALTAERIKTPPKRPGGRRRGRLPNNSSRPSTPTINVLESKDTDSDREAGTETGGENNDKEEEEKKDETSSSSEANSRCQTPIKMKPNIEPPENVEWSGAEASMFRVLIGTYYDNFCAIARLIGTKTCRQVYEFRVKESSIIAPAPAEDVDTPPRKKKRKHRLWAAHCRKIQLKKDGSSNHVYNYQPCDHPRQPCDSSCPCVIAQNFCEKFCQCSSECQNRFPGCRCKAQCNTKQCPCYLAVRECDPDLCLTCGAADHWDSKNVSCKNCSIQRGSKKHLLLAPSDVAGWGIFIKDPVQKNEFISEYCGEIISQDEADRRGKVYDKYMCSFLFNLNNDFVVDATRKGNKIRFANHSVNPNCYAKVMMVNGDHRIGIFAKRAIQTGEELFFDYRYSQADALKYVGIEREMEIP
UniProt Q14781: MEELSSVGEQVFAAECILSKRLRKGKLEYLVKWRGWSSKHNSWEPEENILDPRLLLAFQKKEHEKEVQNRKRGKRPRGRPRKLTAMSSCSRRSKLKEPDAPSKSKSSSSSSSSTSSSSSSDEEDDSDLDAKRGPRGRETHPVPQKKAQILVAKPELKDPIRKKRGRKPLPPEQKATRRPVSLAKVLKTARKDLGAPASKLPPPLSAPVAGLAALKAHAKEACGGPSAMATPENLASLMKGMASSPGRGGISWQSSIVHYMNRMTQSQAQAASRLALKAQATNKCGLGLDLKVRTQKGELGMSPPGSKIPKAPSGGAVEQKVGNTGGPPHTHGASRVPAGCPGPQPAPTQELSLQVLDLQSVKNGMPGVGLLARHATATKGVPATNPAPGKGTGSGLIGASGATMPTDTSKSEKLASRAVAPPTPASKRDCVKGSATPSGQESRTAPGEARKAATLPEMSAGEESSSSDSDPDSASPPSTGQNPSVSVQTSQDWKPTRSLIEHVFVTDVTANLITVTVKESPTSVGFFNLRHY

Molecular target: EZH2 (human (endogenous in LN229)) (UniProt Q15910)
Test: co-IP; LN229 cell lysate (lysis buffer with protease inhibitor cocktail) incubated with anti-CBX2 antibody, anti-EZH2 antibody or normal rabbit IgG overnight at 4°C; protein A/G magnetic beads for 1 h at room temperature; washed with lysis buffer; analysed by Western blot

binding: binds
Substance: Chromobox (CBX) 2 (from UniProt Q14781 1-532)
